Source: paper PMC9788671
These are yes or no findings as the source states them, for the method shown. Binding seen in cells or lysates may run through a third protein. A yes stands for co-enrichment or nearness to the bait. Other partners may have been found.

The chains behind the UniProt entries cited, without tags or fusion partners.
UniProt Q9NZV8: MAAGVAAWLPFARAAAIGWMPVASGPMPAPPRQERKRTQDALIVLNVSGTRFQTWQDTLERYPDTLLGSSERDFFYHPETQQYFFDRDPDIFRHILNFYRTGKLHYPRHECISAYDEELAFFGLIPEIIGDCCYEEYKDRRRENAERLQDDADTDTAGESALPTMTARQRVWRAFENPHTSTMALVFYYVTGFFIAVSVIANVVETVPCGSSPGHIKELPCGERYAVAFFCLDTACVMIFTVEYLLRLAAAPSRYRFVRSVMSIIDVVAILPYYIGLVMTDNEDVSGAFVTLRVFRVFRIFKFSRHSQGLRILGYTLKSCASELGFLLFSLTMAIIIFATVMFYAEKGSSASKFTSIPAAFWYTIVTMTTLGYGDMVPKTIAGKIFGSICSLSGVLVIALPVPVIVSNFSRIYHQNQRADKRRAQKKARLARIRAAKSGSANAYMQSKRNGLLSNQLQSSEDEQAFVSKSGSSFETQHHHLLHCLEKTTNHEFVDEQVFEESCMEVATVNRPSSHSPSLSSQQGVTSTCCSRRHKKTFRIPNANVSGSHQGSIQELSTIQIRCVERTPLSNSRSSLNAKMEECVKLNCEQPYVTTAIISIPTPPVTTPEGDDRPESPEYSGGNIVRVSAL

Target: TAP-Kv4.2 (human) (UniProt Q9NZV8)
Test: affinity purification with mass spectrometry; TAP-Kv4.2 expressed by lentivirus in rat hippocampal neurons, harvested at DIV14; strong lysis buffer (1% Triton X-100, 0.5% deoxycholate in PBS, pH 7.4); streptavidin resin, then calmodulin resin; gel cut into high and low molecular weight fragments; no MS of the control sample

Binder	binding
Dhx30 (protein, UniProt Q5BJS0 1-1194) MFTLDSFRKDRTQHRQRQCKLPPPRLPPMCVNPAPGGTISRASRDLLKEFPQPKNLLNSVIGRALGISHAKDKLVYVHTNGPKKKKVTLHIKWPKSVEVEGYGSKKIDAERQAAAAACQLFKGWGLLGPRNELFDAAKYRVLADRFGSPADSWWRPEPTMPPTSWRQLNPENIRPAGTGGLSRSLGREEEEDEEEELEEGTIDVTEFLSMTQQDSHNPLRDSRGGSFEMTDDDSAIRALTQFPLPKNLLAKVIQIATSSSTAKNLMQFHTVGTKTKLATLTLLWPCPMTFVAKGRRKAEAENKAAALACKKLKSLGLVDRNNEPLTHAMYNLASLRELGETQRRPCTIQVPEPILRKIEAFLSHYPVDSSWISPELRLQSDDILPLGKDSGPLSDPITGKPYMPLSEAEEVRLSQSLLELWRRRGPIWQEAPQLPVDPHRDTILSAIEQHPVVVISGDTGCGKTTRIPQLLLERYVTEGRGARCNVIITQPRRISAVSVAQRVSHELGPSLRRNVGFQVRLESKPPARGGALLFCTVGILLRKLQSNPSLEGVSHVIVDEVHERDVNTDFLLILLKGLQRLNPALRLVLMSATGDNERFSRYFGGCPVIKVPGFMYPVKEHYLEDILAKLGKHQYPHRHRHHESEDECALDLDLVTDLVLHIDARGEPGGILCFLPGWQEIKGVQQRLQEALGMHESKYLILPVHSNIPMMDQKAIFQQPPLGVRKIVLATNIAETSITVNDIVHVVDSGLHKEERYDLKTKVSCLETVWVSRANVIQRRGRAGRCQSGFAYHLFPRSRLEKMVPFQVPEILRTPLENLVLQAKIHMPEKTAVEFLSKAVDSPNIKAVDEAVILLQEIGVLDQREYLTTLGQRLAHISTDPRLAKAIVLAAIFRCLHPLLVVVSCLTRDPFSSSLQNRAEVDKVKALLSHDSGSDHLAFVRAVAGWEEVLRWQDRTSRENYLEENLLYAPSLRFIHGLIKQFSENIYEAFLVGKPSDCTLPSAQCNEYSEEEELVKGVLMAGLYPNLIQVRQGKVTRQGKFKPNSVTYRTKSGNILLHKSTINREATRLRSRWLTYFMAVKSNGSVFVRDSSQVHPLAVLLLTDGDVHIRDDGRRATISLSDSDLLRLEGDSRTVRLLRELRRALGRMVERSLRSELAALPLSVQQEHGQLLALLAELLRGPCGSFDVRKTADD	binds
Syngap1 (protein, UniProt Q9QUH6 1-1308) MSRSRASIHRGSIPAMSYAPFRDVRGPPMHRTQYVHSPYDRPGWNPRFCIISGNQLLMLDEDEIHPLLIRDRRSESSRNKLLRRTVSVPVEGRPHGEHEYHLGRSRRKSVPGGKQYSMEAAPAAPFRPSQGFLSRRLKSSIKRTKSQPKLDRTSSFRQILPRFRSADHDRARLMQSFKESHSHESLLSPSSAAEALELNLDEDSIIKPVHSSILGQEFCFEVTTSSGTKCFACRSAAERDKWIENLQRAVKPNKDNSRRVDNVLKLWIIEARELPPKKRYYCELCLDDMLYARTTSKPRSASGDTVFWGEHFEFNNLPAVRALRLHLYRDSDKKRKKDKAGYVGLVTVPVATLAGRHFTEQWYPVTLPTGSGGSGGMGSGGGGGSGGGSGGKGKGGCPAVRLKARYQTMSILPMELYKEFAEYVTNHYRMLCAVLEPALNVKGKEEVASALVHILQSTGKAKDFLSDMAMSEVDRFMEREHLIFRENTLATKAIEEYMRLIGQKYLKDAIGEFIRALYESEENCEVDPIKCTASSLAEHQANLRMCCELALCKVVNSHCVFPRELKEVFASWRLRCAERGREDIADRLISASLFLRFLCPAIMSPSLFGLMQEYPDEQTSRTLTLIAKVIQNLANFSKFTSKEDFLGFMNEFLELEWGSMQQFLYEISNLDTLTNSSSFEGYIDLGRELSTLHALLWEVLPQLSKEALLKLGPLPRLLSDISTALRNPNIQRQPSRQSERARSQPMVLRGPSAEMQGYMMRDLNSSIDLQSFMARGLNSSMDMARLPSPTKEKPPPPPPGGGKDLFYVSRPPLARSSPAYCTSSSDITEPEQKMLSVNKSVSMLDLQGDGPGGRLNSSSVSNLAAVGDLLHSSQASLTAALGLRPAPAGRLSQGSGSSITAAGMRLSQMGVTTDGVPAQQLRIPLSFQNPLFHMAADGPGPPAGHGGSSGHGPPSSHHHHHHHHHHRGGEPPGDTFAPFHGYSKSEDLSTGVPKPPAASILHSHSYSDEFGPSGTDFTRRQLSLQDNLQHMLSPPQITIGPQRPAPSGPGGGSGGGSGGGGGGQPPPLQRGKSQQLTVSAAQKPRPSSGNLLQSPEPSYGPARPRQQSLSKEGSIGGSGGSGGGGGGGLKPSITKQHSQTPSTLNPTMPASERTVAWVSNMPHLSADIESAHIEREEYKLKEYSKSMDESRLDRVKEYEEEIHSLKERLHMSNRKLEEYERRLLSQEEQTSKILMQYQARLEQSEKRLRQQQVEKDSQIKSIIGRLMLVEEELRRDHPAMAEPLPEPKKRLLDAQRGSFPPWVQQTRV	binds

Now from value to binder:

binding	Binder
binds	Golga3 (protein, UniProt D3ZLD5 1-1487) MDGASAKQDGLWENKSSSDISSCPEASLETVGSLAQLPDQQDTAQDGSVEVNRVFKEEGSPDRSSQVPICQNGQIPDLQLSLDPTTSPVGPDASTGVDGFHDNLRKSQGTSAEGSVRKEALQSLRLSLPMQETQLCSTASSLPLEKEEQVRLQARKRLEEQLMQYRVKRHRERSSQPATKMKLFSTLDPELMLNPENLPRASAVAVTKEYSFLRTSVPRGPKVGSLGLLAHSKEKKNSKSSKIRSLADYRTEDPSDSGGLGSTADAVGSSLKQSRSSTSVVSEVSPSCETDNRAESASLAGDSVSEADGNESDSSSHSSFSARGACAVLGNVGTPGAAYVVDGQEISAEALGQFPSIKDVLQAAAAQHQDQNQEANGEVQSRRDSICSSVSMESSFAEPQEELLQILKDKRRLEGQVEALSLEASQALQEKAELQAQLAALSTRLQAQVEHSHSSQQKQDSLSSEVDTLKQSCWDLERAMTDLQNMLEAKNASLASSNNDLQVAEEQYQRLMAKVEAMQRNILSKDNTVHDLRQQMTALQSQLQQVQLERTTLTSKLQASQAEITSLQQARQWYQQQLALAQEARVRLQGEMAHIQVGQMTQAGLLEHLKLENVSLSHQLTETQHRSIKEKERIAVQLQSIEADMLDQEAAFVQIREAKTMVEEDLQRKLEEFEGEREQLQKVADAAASLEQQLEQVKLTLFQRDQQLAALQQEHLDVIKQLTSTQEALQAKGQSLDDLQTRYDELQARLEELQREADSREDAIHFLQNEKIVLEVALHSARSDKEELDRGARRLEEDTEETSGLLEQLRQDVAVKSNQVEHLQQETATLRKQMQKVKEQFLQQKVMVEAYRRDAASKDQLINELKATKKRLDSEMKELRQELIKLHGEKKTVEVEHSRLQKDMSLVHQQMAELEGHLQSVQKERDEMEIHLQSLKFDKEQMIALTEANETLKKQIEELQQEAKKAITEQKQKMKRLGSDLTSAQKEMKTKHKAYENAVSILSRRLQEALANKEATDAELNQLRAQSTGGSSDPALHEKIHALEVELQNVGQSKILLEKELQEVITMTSQELEESREKVLELEDELQESRGFRRKIKRLEESNKKLALELEHERGKLTGLGQSNAALREHNSILETALAKREADLVQLNLQVQAVLQRKEEEDRQMKQLVQALQISLEKEKTEVSSLKEQMAAARVEAGHNRRHFKAATLELSEVKKELQAKEHLVQTLQAEVDELQIQEGKHSQEIAQFQTELAEARTQLQLLQKKLEEQRSQQPTGSQEMEDLKWELDQKEREIQSLKQQLDLTEHQGKKELEGTQQTLQTIKSELETVQEDLSETQKDKFMLQAKVSELKNNMKTLLQQNQQLKLDLRRGAAKKKEPKGESSSSSPATPIKIPDCPVPASLLEELLRPPPAVSKEPLKNLNSCLQQLKQEMDSLQRQMEEHTITVHESLSSWAQVEAAPAEHAHARGDTKVHNQNSVPGEGLGQ
binds	Gapvd1 (protein, UniProt A0A8I5ZT12 1-1484) MVKLDIHTLAHHLKQERLYVSSEKQLIQRLNADVLKTAEKLYRTAWIAKQQRINLDRLIITSAEASPAECCQHAKILEDTQFVDGYKQLGFQETAYGEFLSRLRENPRLIASSLVAGEKLNQENTQSVIYTVFTSLYGNCIMQEDESYLLQVLRYLIEFELKESDNPRRLLRRGTCAFSILFKLFSEGLFSAKLFLTATLHEPIMQLLVEDEDHLETDPNKLIERFSPAQQEKLFGEKGSDRFRQKVQEMVDSNEAKLVALVNKFIGYLKQNTYCFPHSLRWIVSQMYKTLSCVDRLEVGEVRAMCTDLLLACFICPAVVNPEQYGIISDAPINEVARFNLMQVGRLLQQLAMTGTEEGDPRTKNSLGKFDKGCVAAFLDVVIGGRAVETPPMSSVNLLEGLSRTVVYISYSQLITLVNFMKSVMSGDQLKEDRMALDNLLANLPQAKPGKSSSLDMTPYSTPQMSPATTPANKKNRLPIGQQLAAITAWDSSATNLTAHIPLVTPFATRSRSRSNMLMDLHMDHEGSSQETIQEVQPEEVLVISLGTGPQLTPGMMSENEVLNMQLSDGGQGDVPVDENKLHGKPDKTLRFSLCSDNLEGISEGPSNRSNSVSSLDLEGESVSELGAGPSGSNGVEALQLLEHEQATTQDNLDDKLRKFEIRDMMGLTDDRDISETVSETWSTDVLGSDFDPNVDEDRLQEIAGAAAENVLGSLLCLPGSGSVLLDPCTGSTISETTSEAWSVEVLPSDSEAPDLKQEERLQELESCSGLGSTSDDTDVREVSSRPSTPGLSVVSGISATSEDIPNKIEDLRSECSSDFGGKDSVTSPDVDDIAHGAHQLTSPPSQSESLLAMFDPLSSHEGASAVVRPKVHYARPSHPPPDPPILEGAVGGNEARLPNFGSHVLTAAEMEAFRQRHSYPERLVRSRSSDIVSCVRRPMSDPSWNRRPGNEELPPAAATGATSLVAAPHSSSSSPSKDSSRGETEERKDSDDERSDRSRPWWRKRFVSAMPKAPIPFRKKEKQEKDKDDLGPDRFSTLTDEPSPRLSAQAQVAEDILDKYRNAIKRTSPSEGALANDESTEVMGDGESAHDSPREELQNMSADDLPDSASQAAHPQDSALSYRDVKKKLRLALCSADSVAFPMLTHSTRNGLPEHTDPEDNEIVCFLKVQIAEAINLQDKSLMAQLQETMRCVCRFDNRTCRKLLASIAEDYRKRAPYIAYLTRCRQGLQTTQAHLERLLQRVLRDKEVANRYFTTVCVRLLLESKEKKIREFIQDFQKLTAADDKTAQVEDFLQFLYGAMAQDVIWQNASEEQLQDAQLAIERSVMNRIFKLAFYPNQDGDILRDQVLHEHIQRLSKVVTANHRALQIPEVYLREAPWPSAQSEIRTISAYKTPRDKVQCILRMCSTIMNLLSLANEDSVPGADDFVPVLVFVLIKANPPCLLSTVQYISSFYASCLSGEESYWWMQFTAAVEFIKTIDDRK
